Holding throughout (experiment): log2 fold change, soluble protein after heating vs DMSO (PISA); higher = thermal stabilisation; K562 lysate, 10 uM; active = over 0.2 and 3.5 SD of the protein, either way, in both replicates (recomputed)
Compound in one experiment: CN1CC[C@H](c2c(O)cc(O)c3c(=O)cc(-c4ccccc4Cl)oc23)[C@H](O)C1 [alvocidib]
In outline:
(§1)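 Quantification was by TMTpro 16plex LC-MS/MS with equalised channel sums, applied to the supernatant after 21,000xg for 90 min. Samples were crude K562 extract at 1 mg/mL protein in PBS pH 7.4 with 1 mM MgCl2, treated with 10 μM compound for 30 min, heated for 3 min across 48°C-58°C, pooled and brought to 0.5% NP-40 at 4°C. Values are log-two fold changes in thermal stability relative to solvent controls, from duplicates.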

Sequences of proteins named here, by UniProt entry; tags and fusion partners are left off. A change or cut given only in a name is not applied to a line headed by its entry.
UniProt Q92769, whole entry, looked up: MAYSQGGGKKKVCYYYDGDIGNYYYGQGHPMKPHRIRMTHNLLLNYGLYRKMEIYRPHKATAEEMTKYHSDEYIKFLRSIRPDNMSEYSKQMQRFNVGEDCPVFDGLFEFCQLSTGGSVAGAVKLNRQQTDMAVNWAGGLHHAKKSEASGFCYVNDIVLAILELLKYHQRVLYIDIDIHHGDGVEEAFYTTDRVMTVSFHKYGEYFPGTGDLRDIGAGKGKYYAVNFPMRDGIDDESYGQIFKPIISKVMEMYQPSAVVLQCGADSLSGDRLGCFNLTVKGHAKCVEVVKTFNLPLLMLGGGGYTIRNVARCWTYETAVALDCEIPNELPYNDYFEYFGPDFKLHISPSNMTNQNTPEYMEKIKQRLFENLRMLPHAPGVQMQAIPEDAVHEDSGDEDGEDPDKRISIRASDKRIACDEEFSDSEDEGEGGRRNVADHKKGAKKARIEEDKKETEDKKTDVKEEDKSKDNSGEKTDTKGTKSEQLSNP
UniProt P16402, whole entry, looked up: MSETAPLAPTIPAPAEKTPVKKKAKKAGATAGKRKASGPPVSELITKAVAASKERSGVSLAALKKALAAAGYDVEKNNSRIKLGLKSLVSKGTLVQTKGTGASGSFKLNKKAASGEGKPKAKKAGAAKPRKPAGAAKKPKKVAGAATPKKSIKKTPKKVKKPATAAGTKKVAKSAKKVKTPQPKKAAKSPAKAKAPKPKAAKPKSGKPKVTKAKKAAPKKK
UniProt Q9H6D7: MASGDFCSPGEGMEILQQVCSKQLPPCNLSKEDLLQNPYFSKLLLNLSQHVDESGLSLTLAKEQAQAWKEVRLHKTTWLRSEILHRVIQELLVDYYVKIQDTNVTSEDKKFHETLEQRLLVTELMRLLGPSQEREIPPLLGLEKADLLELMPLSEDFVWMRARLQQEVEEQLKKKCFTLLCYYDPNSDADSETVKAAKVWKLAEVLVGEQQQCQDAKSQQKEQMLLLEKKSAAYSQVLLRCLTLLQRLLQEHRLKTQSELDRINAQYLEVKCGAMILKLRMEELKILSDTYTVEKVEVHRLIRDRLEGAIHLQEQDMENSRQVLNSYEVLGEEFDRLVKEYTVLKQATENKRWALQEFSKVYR
UniProt P52655, whole entry, looked up: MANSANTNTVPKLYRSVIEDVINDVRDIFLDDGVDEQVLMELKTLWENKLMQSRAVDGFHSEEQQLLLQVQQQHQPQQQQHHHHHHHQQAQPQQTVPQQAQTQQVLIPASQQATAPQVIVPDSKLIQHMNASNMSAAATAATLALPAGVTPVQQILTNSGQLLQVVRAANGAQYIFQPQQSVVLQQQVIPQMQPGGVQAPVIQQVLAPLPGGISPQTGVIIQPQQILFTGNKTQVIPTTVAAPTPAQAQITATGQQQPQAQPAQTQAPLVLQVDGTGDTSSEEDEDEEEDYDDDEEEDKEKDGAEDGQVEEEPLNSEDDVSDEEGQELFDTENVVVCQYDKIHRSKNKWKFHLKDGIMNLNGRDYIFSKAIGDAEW
UniProt P49590: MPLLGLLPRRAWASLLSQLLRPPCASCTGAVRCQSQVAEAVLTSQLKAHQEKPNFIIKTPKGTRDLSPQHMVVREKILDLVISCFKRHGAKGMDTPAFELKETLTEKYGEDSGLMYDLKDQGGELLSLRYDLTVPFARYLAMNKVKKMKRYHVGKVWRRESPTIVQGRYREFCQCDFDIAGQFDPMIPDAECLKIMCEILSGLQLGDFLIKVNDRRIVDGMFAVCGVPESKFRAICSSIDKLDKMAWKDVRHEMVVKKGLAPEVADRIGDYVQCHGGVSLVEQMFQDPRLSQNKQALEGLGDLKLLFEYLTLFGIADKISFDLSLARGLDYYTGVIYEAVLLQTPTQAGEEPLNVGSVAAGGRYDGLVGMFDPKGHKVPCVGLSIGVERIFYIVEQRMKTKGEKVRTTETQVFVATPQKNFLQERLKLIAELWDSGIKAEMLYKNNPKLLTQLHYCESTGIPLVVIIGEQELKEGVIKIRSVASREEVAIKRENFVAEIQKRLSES
UniProt Q969Y2: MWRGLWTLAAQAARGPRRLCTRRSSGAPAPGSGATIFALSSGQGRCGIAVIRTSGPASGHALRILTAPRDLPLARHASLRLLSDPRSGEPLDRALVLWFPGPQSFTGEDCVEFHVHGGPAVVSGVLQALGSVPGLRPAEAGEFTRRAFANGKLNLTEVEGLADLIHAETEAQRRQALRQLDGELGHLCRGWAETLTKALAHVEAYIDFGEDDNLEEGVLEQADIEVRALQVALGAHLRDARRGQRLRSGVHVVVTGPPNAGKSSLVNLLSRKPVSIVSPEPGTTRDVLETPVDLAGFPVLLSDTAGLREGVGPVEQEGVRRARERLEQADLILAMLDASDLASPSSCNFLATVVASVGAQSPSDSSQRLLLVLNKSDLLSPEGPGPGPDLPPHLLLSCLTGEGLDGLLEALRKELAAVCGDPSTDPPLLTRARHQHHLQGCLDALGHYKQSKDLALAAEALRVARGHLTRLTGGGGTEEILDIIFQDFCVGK
UniProt P00390: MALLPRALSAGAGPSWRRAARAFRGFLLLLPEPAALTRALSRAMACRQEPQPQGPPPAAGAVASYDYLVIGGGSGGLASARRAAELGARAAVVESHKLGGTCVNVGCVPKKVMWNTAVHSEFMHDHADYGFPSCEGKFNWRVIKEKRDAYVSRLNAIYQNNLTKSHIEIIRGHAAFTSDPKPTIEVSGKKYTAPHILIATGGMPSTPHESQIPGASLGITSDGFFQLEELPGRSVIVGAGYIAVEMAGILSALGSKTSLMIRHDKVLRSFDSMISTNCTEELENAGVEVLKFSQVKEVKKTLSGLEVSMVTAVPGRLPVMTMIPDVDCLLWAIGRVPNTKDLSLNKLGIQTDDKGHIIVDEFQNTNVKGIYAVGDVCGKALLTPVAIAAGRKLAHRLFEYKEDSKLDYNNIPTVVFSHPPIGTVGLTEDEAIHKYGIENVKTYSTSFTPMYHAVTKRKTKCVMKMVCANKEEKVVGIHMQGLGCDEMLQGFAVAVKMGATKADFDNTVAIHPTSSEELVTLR
UniProt Q9BT25: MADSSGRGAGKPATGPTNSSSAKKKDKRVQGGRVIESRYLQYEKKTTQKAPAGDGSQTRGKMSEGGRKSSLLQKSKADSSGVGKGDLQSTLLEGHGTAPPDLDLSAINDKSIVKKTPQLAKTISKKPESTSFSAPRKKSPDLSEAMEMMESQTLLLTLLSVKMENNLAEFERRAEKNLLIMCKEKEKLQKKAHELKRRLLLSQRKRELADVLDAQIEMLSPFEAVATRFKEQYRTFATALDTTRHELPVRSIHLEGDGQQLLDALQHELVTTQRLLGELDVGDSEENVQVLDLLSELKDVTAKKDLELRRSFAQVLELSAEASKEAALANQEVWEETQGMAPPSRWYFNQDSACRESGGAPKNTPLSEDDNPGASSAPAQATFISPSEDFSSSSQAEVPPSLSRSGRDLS
UniProt P25098: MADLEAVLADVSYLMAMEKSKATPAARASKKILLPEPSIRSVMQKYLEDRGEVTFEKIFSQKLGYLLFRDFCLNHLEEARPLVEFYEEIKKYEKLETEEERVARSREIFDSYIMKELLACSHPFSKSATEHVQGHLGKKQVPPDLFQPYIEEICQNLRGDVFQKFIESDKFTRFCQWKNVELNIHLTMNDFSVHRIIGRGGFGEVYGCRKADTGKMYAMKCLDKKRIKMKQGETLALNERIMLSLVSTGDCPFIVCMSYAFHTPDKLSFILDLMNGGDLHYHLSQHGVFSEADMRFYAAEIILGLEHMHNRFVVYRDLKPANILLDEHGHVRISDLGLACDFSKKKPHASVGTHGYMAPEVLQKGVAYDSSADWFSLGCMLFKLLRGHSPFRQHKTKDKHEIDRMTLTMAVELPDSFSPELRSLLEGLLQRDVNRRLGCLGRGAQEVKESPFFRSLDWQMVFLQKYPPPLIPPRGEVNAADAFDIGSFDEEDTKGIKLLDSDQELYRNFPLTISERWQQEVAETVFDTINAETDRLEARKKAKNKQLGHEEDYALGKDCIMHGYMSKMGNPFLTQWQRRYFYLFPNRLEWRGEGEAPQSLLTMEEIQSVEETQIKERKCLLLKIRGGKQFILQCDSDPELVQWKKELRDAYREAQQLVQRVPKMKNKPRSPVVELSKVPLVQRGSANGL
UniProt Q9P035: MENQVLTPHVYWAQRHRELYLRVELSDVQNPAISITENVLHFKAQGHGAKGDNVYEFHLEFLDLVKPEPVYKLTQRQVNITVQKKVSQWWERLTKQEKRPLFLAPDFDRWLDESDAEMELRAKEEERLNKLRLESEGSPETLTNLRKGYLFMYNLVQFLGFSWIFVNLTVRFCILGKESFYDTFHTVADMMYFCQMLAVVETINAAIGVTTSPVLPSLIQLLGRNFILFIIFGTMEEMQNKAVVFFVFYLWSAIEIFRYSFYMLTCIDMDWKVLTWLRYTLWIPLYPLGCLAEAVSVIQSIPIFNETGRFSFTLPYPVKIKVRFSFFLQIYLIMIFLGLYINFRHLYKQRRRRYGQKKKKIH
UniProt P09211: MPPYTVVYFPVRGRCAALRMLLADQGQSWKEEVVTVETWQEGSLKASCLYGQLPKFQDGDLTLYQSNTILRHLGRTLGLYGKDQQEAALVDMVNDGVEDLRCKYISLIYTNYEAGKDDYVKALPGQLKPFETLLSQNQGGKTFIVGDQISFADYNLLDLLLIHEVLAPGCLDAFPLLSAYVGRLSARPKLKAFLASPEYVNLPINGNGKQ
UniProt O00178: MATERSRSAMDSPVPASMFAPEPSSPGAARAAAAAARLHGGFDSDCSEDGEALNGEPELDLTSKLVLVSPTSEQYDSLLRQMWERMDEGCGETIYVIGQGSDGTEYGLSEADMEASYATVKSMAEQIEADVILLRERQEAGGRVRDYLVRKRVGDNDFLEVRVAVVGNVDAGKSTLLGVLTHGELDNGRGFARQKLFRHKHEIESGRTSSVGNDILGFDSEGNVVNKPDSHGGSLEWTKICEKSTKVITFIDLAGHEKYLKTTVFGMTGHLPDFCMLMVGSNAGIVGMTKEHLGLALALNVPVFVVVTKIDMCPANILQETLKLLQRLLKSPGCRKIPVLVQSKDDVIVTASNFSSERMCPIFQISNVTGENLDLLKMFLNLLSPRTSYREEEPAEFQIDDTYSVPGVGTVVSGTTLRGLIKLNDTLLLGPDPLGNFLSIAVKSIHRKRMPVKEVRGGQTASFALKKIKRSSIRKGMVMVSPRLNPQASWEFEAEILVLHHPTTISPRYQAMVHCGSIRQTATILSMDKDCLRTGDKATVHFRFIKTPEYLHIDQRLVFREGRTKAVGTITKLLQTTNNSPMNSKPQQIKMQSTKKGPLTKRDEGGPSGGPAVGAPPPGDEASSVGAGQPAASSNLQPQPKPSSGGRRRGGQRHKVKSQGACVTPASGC
UniProt Q7Z4H3: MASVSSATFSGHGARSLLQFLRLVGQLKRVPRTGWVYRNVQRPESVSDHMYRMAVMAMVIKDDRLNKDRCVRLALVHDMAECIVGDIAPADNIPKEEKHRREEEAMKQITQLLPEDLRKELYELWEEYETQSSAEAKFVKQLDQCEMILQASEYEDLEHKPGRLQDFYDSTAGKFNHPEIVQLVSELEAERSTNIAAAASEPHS

Compound in a further experiment: CN1CCc2c(c3ccccc3n2Cc2ccc(C(=O)NO)cc2)C1 [Tubastatin A]
The gist of the method: as §1

Compound in experiment [1]: CNC(=O)C1=CC=CC=C1NC2=NC(=NC=C2Cl)NC3=C(C=C(C=C3)N4CCOCC4)OC
In outline: as §1

Compound in the next experiment: CNC(=O)c1ccc(Nc2ncc(C(F)(F)F)c(NCc3nccnc3N(C)S(C)(=O)=O)n2)cc1 [defactinib]
The gist of the method: as §1

Compound in experiment [2]: CNc1nc(-c2ccc3c(N)n[nH]c3c2)cc(N2C[C@@H](C(=O)NC3CCCCC3)CC[C@H]2C)n1
The gist of the method: as §1

Compound in a further experiment: COC(=O)N[C@@H](C)CNc1nccc(-c2cn(C(C)C)nc2-c2cc(Cl)cc(NS(C)(=O)=O)c2F)n1 [encorafenib]
The gist of the method: as §1

Compound in experiment [3]: COC(=O)[C@H](CCSC)NC(=O)C1=C(C=C(C=C1)NC[C@H](CS)N)C2=CC=CC=C2
In outline: as §1

Compound in another experiment: COc1cc(Nc2ncc3c(n2)-c2ccc(Cl)cc2C(c2c(F)cccc2OC)=NC3)ccc1C(=O)O [alisertib]
In outline: as §1

Compound in experiment [4]: COc1cc2nc(-c3cc(F)ccc3O)nc(N[C@@H]3CNC[C@H]3C(C)(C)O)c2cc1OC
The gist of the method:
as §1

Compound in the next experiment: COc1cc2ncnc(Nc3ccc(F)c(Cl)c3)c2cc1OCCCN1CCOCC1 [gefitinib]
In outline: as §1

This is one part of the list.

From the supplement of paper PMC10849652 come the findings set out here.

Consider HDAC2 (UniProt Q92769), for which the log2 fold change is inactive: -0.01 in the experiment with alvocidib; inactive: -0.012 with Tubastatin A; inactive: -0.007 in experiment [1]; inactive: 0.006 with defactinib; inactive: 0.003 in [2]; inactive: -0.006 in the experiment with encorafenib. For the same target, the log2 fold change in experiment [3] was inactive: 0.007; with alisertib, inactive: 0.002; in experiment [4], inactive: 0; in the experiment with gefitinib, inactive: 0.013.

H1-3 (UniProt P16402): the log2 fold change was inactive: 0.044 with alvocidib; inactive: 0.099 with Tubastatin A; inactive: -0.012 in [1]; inactive: -0.011 in the experiment with defactinib; inactive: 0.006 in [2]; inactive: -0.003 with encorafenib. In addition, the log2 fold change in [3] is inactive: -0.023; in the experiment with alisertib, inactive: 0.006; in experiment [4], inactive: 0.017; with gefitinib it was inactive: -0.021.

For the target HAUS4 (UniProt Q9H6D7), the log2 fold change with alvocidib was inactive: 0.007; with Tubastatin A it was inactive: -0.116; in experiment [1] it was inactive: 0.007; in the experiment with defactinib, inactive: 0.014; in [2], inactive: -0.005; with encorafenib, inactive: 0.002. Moreover, the log2 fold change was inactive: 0.012 in [3], inactive: 0.008 with alisertib, inactive: -0.017 in [4] and inactive: -0.022 with gefitinib.

Regarding GTF2A1 (UniProt P52655), the log2 fold change in the experiment with alvocidib is inactive: 0.165; with Tubastatin A, inactive: 0.006; in experiment [1], inactive: -0.047; in the experiment with defactinib, inactive: 0.033; in experiment [2] it was inactive: 0.048; in the experiment with encorafenib it was inactive: -0.005. Besides, the log2 fold change in experiment [3] was inactive: -0.026; in the experiment with alisertib, inactive: -0.029; in experiment [4] it was inactive: -0.024; with gefitinib it was inactive: 0.008.

As for UniProt H0YHG0, the log2 fold change is inactive: -0.049 with alvocidib; inactive: 0.06 with Tubastatin A; inactive: 0.005 in experiment [1]; inactive: -0.039 with defactinib; inactive: 0.046 in [2]; inactive: -0.01 with encorafenib. Also, the log2 fold change was inactive: -0.007 in experiment [3], inactive: 0.013 with alisertib, inactive: 0.014 in experiment [4] and inactive: -0.009 in the experiment with gefitinib.

Take HARS2 (UniProt P49590): the log2 fold change is inactive: 0.041 in the experiment with alvocidib; inactive: -0.039 in the experiment with Tubastatin A; inactive: -0.053 in experiment [1]; inactive: -0.012 with defactinib; inactive: -0.005 in experiment [2]; inactive: 0.178 with encorafenib. Besides, the log2 fold change is inactive: -0.011 in experiment [3], inactive: -0.017 in the experiment with alisertib, inactive: 0.047 in [4] and inactive: 0.003 with gefitinib.

For GTPBP3 isoform 2 (UniProt Q969Y2), the log2 fold change was inactive: 0.087 in the experiment with alvocidib; inactive: -0.084 in the experiment with Tubastatin A; inactive: -0.008 in experiment [1]; inactive: 0.006 with defactinib; inactive: 0.089 in experiment [2]; inactive: 0.124 with encorafenib. The log2 fold change in experiment [3] is inactive: 0.347; with alisertib it was inactive: -0.038; in [4], inactive: -0.048; with gefitinib, inactive: -0.014.

As for GSR (UniProt P00390), the log2 fold change with alvocidib is inactive: -0.001; in the experiment with Tubastatin A, inactive: 0.036; in experiment [1], inactive: 0.023; with defactinib, inactive: 0.028; in experiment [2] it was inactive: 0.068; with encorafenib, inactive: -0.011. For the same target, the log2 fold change is inactive: -0.07 in experiment [3], inactive: -0.002 with alisertib, inactive: -0.015 in [4] and inactive: -0.003 with gefitinib.

Regarding HAUS8 (UniProt Q9BT25), the log2 fold change was inactive: 0.067 in the experiment with alvocidib; inactive: -0.173 with Tubastatin A; inactive: -0.012 in experiment [1]; inactive: -0.06 with defactinib; inactive: 0.064 in experiment [2]; inactive: 0.063 in the experiment with encorafenib. For the same target, the log2 fold change was inactive: -0.004 in experiment [3], inactive: -0.063 with alisertib, inactive: -0.075 in [4] and inactive: -0.031 with gefitinib.

As for GRK2 (UniProt P25098), the log2 fold change in the experiment with alvocidib was inactive: 0.001; in the experiment with Tubastatin A it was inactive: -0.08; in experiment [1], inactive: 0.068; in the experiment with defactinib, inactive: 0.106; in experiment [2], inactive: 0.044; with encorafenib, inactive: 0.001. Moreover, the log2 fold change in experiment [3] is inactive: 0.086; with alisertib, inactive: -0.042; in [4], inactive: 0.066; with gefitinib, inactive: -0.041.

Consider HACD3 (UniProt Q9P035), for which the log2 fold change with alvocidib was inactive: 0.026; with Tubastatin A, inactive: -0.001; in experiment [1] it was inactive: -0.028; with defactinib it was inactive: 0.055; in experiment [2], inactive: -0.01; in the experiment with encorafenib, inactive: 0.006. Further, the log2 fold change was inactive: -0.031 in [3], inactive: 0.032 with alisertib, inactive: -0.123 in experiment [4] and inactive: -0.002 in the experiment with gefitinib.

As to GSTZ1 (UniProt G3V4T6), the log2 fold change in the experiment with alvocidib is inactive: -0.016; with Tubastatin A, inactive: 0.018; in experiment [1] it was inactive: 0.01; in the experiment with defactinib, inactive: 0.061; in experiment [2] it was inactive: 0.028; with encorafenib, inactive: -0.045. Moreover, the log2 fold change is active: 0.35 in experiment [3], inactive: 0.023 with alisertib, inactive: 0.049 in [4] and inactive: 0.002 with gefitinib.

For the target GSTP1 (UniProt P09211), the log2 fold change is inactive: 0.04 with alvocidib; inactive: -0.057 with Tubastatin A; inactive: -0.017 in experiment [1]; inactive: 0.008 in the experiment with defactinib; inactive: -0.036 in experiment [2]; inactive: -0.052 with encorafenib. Further, the log2 fold change was inactive: 0.061 in experiment [3], inactive: 0.037 with alisertib, inactive: -0.008 in experiment [4] and inactive: 0.007 with gefitinib.

As for GTPBP1 (UniProt O00178), the log2 fold change is inactive: 0 with alvocidib; inactive: 0.006 in the experiment with Tubastatin A; inactive: 0.018 in [1]; inactive: 0.018 in the experiment with defactinib; inactive: 0.008 in [2]; inactive: 0.003 in the experiment with encorafenib. Also, the log2 fold change was inactive: 0.029 in experiment [3], inactive: -0.005 in the experiment with alisertib, inactive: -0.004 in experiment [4] and inactive: -0.025 with gefitinib.

With HDDC2 (UniProt Q7Z4H3), the log2 fold change was inactive: 0.005 with alvocidib; inactive: 0.006 with Tubastatin A; inactive: -0.019 in experiment [1]; inactive: 0.07 with defactinib; inactive: 0.017 in [2]; inactive: -0.039 in the experiment with encorafenib. The log2 fold change is inactive: -0.002 in experiment [3], inactive: -0.038 with alisertib, inactive: 0.002 in experiment [4] and inactive: -0.035 in the experiment with gefitinib.
